Reference: US20230312741A1
Where a chain is given by its changes, count along the chain named. These are yes or no findings as the source states them, for the method shown. Some entries that bind do so weakly or less than the wild type.

Experiments:
Experiment in all cases: flow cytometry, GS-CHO cells with CD73 mutant
[1] = molecular target: T1, CD73 mutant F65A/H103A (human) (UniProt P21589)
T1 sequence: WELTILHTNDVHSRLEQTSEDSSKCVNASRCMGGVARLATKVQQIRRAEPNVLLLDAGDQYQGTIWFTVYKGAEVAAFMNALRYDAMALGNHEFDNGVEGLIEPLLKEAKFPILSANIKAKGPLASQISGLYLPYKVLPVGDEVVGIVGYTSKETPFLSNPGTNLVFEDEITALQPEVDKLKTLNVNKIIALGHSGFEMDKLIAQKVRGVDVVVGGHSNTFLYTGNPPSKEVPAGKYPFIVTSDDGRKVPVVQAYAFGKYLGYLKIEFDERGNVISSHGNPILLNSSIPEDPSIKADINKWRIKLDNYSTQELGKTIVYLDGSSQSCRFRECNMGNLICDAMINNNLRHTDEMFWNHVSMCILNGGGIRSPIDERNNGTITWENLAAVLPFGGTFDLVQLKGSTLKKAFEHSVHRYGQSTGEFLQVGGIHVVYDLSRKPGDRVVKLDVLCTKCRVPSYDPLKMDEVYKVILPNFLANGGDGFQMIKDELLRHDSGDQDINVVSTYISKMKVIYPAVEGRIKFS

[2] = molecular target: T2, CD73 mutant R109A/K136A/E134A (human) (UniProt P21589)
T2 sequence: T1 sequence with A39F, A77H, R83A, E108A, K110A

[3] = molecular target: T3, CD73 mutant Q201A/E203A (human) (UniProt P21589)
T3 sequence: T1 sequence with A39F, A77H, Q175A, E177A

[4] = molecular target: T4, CD73 mutant E194A/E196A (human) (UniProt P21589)
T4 sequence: T1 sequence with A39F, A77H, E168A, E170A

[5] = molecular target: T5, CD73 mutant S152A/Q153A (human) (UniProt P21589)
T5 sequence: T1 sequence with A39F, A77H, S126A, Q127A

Measured: binding

B1: ADI-37505 (antibody, human IgG4 S228P, kappa, F234A L235A, V domains shown)
VH: QVQLVESGGGLVQPGGSLRLSCAASGFTFSNYAMTWVRQAPGKGLEWVSAISGRGTATYYADSVKGRFTISRDNSKNTLYLQMNSLRAEDTAVYYCARGGPYGSGSYWDTFDYWGQGTLVTVSS
VL: EIVMTQSPATLSVSPGERATLSCRASQSVSSNLAWYQQKPGQAPRLLIYGASTRATGIPARFSGSGSGTEFTLTISSLQSEDFAVYYCQQYTNHYTFGGGTKVEIKR
binds: all assays above

B2: ADI-37506 (antibody, human IgG4 S228P, kappa, F234A L235A, V domains shown)
VH: B1 VH with Q1E, V5L, Y32L, T35S, G55A, A57S
VL: B1 VL
binds: all assays above
